Laboratory results as given in publication PMC9855946.
No constants are given. Whether binding was seen depends on the method and setting. Some results given as binding are weak or reduced against the parent protein; the word gives no strength.

Target: Thermotoga maritima encapsulin with a 10 Histidine tag after residue 127 (EncH) (Thermotoga maritima) (UniProt Q9WZP2)
Test: negative-stain transmission electron microscopy; purified cages (EncH{} and EncH{FLP}; cargo produced along with the cage in E. coli and purified with it by the His-tag of Enc and SEC) on Formvar carbon-coated copper grids, 1% uranyl acetate, 300 kV; both purified

B1: ferritin-like protein (FLP), native cargo of Thermotoga maritima encapsulin (protein, UniProt Q9WZP3 1-114)
chain: MADQYHEPVSELTGKDRDFVRALNSLKEEIEAVAWYHQRVVTTKDETVRKILEHNRDEEMEHAAMLLEWLRRNMPGWDEALRTYLFTDKPITEIEEETSGGSENTGGDLGIRKL
binding: binds
